Reference: publication doi:10.1101/2025.09.02.673761 (bioRxiv, 2025)
No constants are given. Whether binding was seen depends on the method and setting. Some entries that bind do so weakly or less than the wild type.

The chains behind the UniProt entries cited, without tags or fusion partners. Where a name states a change or a piece, a line headed by the entry shows the natural chain unless it says otherwise.
UniProt Q9NQS7: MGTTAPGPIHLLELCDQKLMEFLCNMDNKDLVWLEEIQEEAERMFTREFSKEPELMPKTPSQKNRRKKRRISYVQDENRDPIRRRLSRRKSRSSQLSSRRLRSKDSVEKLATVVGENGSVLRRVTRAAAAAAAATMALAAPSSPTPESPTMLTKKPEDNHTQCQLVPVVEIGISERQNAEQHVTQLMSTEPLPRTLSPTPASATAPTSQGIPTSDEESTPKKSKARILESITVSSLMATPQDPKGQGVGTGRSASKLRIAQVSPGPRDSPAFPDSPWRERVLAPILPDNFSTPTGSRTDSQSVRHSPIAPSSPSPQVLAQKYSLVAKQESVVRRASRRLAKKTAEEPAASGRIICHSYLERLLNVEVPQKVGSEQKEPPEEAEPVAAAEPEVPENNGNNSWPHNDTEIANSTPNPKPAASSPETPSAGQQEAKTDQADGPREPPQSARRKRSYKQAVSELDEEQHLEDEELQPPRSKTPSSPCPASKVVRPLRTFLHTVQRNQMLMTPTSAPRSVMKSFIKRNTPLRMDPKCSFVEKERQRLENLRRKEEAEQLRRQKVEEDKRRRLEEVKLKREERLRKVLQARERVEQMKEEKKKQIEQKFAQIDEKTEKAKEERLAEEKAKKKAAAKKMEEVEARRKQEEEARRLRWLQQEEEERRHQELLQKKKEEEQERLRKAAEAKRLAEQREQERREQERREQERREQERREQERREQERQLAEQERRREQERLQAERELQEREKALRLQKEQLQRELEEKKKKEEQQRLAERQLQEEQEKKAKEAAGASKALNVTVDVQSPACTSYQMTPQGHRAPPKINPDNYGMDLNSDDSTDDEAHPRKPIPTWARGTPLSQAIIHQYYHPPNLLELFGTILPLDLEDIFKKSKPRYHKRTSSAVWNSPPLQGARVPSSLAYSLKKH
UniProt Q96GD4: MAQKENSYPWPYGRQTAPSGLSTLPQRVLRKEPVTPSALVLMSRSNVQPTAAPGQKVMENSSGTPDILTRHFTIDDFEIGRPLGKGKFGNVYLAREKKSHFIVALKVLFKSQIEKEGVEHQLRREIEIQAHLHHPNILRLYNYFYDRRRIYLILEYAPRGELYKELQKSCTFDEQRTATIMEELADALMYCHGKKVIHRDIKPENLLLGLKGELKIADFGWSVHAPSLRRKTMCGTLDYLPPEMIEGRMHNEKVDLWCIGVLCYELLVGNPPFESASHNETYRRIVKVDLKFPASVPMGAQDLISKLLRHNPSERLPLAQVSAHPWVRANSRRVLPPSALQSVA
UniProt Q53HL2: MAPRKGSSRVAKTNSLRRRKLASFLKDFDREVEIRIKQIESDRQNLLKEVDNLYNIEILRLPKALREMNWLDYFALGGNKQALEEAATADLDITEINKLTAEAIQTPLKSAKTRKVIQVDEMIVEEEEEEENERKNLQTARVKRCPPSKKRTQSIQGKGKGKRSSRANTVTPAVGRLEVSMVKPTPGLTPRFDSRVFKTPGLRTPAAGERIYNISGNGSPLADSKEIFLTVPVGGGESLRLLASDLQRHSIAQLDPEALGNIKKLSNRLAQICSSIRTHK
UniProt O15392: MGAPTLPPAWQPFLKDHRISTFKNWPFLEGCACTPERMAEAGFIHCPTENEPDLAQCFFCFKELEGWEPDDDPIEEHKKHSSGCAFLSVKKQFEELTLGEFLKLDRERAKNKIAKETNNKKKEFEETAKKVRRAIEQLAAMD

Molecular target: T1, KIF4A (kinesin), unlabeled (human) (UniProt O95239)
T1 sequence: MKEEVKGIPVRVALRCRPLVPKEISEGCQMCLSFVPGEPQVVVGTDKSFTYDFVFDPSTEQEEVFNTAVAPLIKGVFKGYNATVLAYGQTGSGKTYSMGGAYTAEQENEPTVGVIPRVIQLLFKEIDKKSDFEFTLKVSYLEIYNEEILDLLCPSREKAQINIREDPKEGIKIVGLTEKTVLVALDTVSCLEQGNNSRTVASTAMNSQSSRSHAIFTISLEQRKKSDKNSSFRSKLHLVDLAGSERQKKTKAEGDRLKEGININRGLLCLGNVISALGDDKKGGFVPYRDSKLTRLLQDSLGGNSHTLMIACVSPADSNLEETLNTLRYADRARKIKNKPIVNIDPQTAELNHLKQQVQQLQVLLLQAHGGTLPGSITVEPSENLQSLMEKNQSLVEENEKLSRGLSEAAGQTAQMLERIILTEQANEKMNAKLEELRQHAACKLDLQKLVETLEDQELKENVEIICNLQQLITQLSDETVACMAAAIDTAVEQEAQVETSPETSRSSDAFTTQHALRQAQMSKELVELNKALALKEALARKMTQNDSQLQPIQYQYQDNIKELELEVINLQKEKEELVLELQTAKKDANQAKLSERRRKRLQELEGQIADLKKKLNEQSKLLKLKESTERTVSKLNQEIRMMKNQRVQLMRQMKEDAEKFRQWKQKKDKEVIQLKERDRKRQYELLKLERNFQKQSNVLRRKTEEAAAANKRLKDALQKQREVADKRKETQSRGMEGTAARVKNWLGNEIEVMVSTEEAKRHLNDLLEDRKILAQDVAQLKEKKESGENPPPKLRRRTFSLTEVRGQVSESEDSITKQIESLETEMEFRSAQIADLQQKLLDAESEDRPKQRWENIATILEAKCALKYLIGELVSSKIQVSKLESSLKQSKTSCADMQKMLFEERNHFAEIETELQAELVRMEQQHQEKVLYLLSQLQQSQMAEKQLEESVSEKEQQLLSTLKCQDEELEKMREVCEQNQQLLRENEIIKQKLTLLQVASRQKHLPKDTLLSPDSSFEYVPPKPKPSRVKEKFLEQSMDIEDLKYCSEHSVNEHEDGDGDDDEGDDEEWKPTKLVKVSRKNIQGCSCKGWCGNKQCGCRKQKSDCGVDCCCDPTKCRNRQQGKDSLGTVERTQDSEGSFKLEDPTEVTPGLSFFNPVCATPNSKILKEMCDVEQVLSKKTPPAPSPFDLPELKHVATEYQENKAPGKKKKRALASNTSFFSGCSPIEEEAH
Test: TIRF microscopy, time-lapse of transport along microtubules

## JFX646-conjugated Halo-CPC (INCENP, Aurora B, Borealin-Halo, Survivin) (from UniProt Q9NQS7;Q96GD4;Q53HL2;O15392) (complex)
  binding: binds
